Measured values published in patent publication US7879797B2, “HCV NS3 protease inhibitors” (Merck Sharp & Dohme Corp., priority 2005, dated 2011).
Some of these results come from one statement about several compounds together.

The chains behind the UniProt entries cited, without tags or fusion partners. Residues count along the entry.
UniProt P27958, 1027-1657: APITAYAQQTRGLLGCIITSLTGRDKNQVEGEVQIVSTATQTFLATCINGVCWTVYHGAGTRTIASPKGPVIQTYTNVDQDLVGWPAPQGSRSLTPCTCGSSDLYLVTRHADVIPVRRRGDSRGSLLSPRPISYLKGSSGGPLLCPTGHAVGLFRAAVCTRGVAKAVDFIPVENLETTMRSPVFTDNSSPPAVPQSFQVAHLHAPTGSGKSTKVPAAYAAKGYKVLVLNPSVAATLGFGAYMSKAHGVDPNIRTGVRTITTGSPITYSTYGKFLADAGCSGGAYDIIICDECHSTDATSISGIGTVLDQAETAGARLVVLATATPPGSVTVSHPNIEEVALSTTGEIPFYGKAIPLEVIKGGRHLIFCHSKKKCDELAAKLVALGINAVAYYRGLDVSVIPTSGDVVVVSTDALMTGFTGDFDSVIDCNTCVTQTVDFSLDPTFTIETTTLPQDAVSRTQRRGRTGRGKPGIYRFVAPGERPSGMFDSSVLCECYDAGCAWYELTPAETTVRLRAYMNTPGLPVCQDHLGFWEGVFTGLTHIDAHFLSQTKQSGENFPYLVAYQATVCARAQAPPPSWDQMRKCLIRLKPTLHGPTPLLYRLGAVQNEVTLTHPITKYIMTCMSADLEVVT
UniProt P27958, 1658-1711: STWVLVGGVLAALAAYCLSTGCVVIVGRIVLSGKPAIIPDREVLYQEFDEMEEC

Biological target: HCV NS3 protease (Hepatitis C virus genotype 1a, UniProt P27958)
Assay: HCV NS3 protease time-resolved fluorescence (TRF) assay
Format: biochemical
Details: read-out: Ki value

C=C[C@@]1(C(=O)NS(=O)(=O)C2CC2)C[C@H]1NC(=O)[C@@H]1C[C@@H]2CN1C(=O)[C@H](CCCC)NC(=O)OCCCCC=Cc1ccc3nc(-c4ccccc4)cc(c3c1)O2 [III-37, (2R,4S,7S)-7-butyl-N-((1R,2S)-2-{[(Cyclopropylsulfonyl)amino]carbonyl}-2-vinylcyclopropyl)-6,9-dioxo-21-phenyl-3,4,6,7,8,9,11,12,13,14-decahydro-2H-17,19-ethanediylidene-2,5-methano pyrido[4,3-k][1,10,3,6]dioxa diazacycloicosine-4-carboxamide]
Ki: < 10 µM
